# Hit rate of the full screen: of about 340,000 compounds, about 170 (0.05%) were called active. This list was built around the results that the source calls inconclusive (neither active nor inactive); the mix of calls is not that of the screen. Calls come from the whole dose curve; as a rule, active = well fitted inhibition curve with a large enough effect in the signal ratio, with a control signal flat (not every such curve was filed as active); inconclusive = small, poorly fitted or top-dose-only effect, or effect the other way, or a change in a side signal; inactive = flat fitted curve, though single readings scatter; the % refers to the signal ratio. Where the call is inconclusive, the potency comes from a doubtful curve fit.
# Assay: qHTS Assay to Find Inhibitors of Chronic Active B-Cell Receptor Signaling;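 for activity change, negative = inhibition: plate controls were basal doxycycline-induced cells for no effect and cells given 10 µM MG132 for full effect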
# Settings: ABC-DLBCL IkBa-CBG/CBR reporter, luminescence ratio (green luciferase fused to IkBa over red control in TMD8 lymphoma cells), 4 h; activity change, negative = inhibition: at 46.1 µM (top of the series)
# Outline: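 Doxycycline induced both beetle luciferases in TMD8 lymphoma cells; IKK-driven degradation limits the IkappaBalpha-fused green signal, while red luminescence normalises for cell number and nonspecific effects. Compounds tested up to 46 uM, 4 hrs.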
# Potency is the fitted concentration of half-maximal effect.
Compound,Potency,"activity change, negative = inhibition"
Cn1c(Cl)cnc1C1CC(=O)c2cc(Cl)ccc2O1 (centres undefined),"inconclusive: 2.06 µM [falling, partial curve]",–
COc1ccc(CNC(=O)C2CCN(S(=O)(=O)c3c(C)n[nH]c3C)CC2)cc1,–,inactive: -0.364%
COc1ccc(N2CCN(C(=O)c3ccc(CS(=O)(=O)c4ccccc4C)o3)CC2)cc1,–,inactive: -0.204%
Cc1cccc(NC(=O)C2COc3ccccc3O2)c1 (centres undefined),–,inconclusive: 2.18%
CC(=O)N1CCN(c2ccc(NC(=O)c3ccccc3Cl)cc2)CC1,–,inconclusive: -18.2%
Cc1ccc(F)cc1NC(=O)CN1C(=O)NC(C)(c2ccc3c(c2)OCCO3)C1=O (centres undefined),–,inconclusive: -1.91%
COc1ccc(CCNc2nc(-c3ccccn3)cs2)cc1OC,–,inconclusive: -6.86%
O=C(N/N=C\c1ccc(S(=O)(=O)O)o1)c1ccc2c(c1)OCO2,–,inconclusive: -3.11%
C=CCc1cccc2cc(C(=O)Nc3ccc(CC(=O)O)cc3)c(=O)oc12,"inconclusive: 5.01 µM [falling, partial curve]",–
COc1ccc(CCC(=O)Nc2cc3c4c(c2)CCC(=O)N4CCC3)cc1,–,inconclusive: -6.55%
CCOC(=O)c1c(NC(=O)CSc2nnc(-c3cccnc3)n2Cc2ccco2)sc(C)c1C,–,inconclusive: -0.609%
CC(C)CSc1nnc2c3ccccc3n(C)c2n1,–,inconclusive: 5.09%
N#CC1=CN(Cc2ccccc2)C=C(/C=N/Nc2ccccc2)C1,–,inconclusive: -3.31%
COc1ccccc1-n1c(SCC(=O)Nc2ccc(F)cc2)nc2c(c1=O)SCC2,"inconclusive: 29.1 µM [falling, partial curve, poor fit]",–
Nc1cc(-c2ccccc2)nn1Cc1ccc(Cl)cc1,–,inconclusive: 18.2%
Cc1ccc(OCCCn2c(CO)nc3ccccc32)cc1,–,inconclusive: 5.6%
CC(C)(C)c1cc(Br)ccc1OCC(=O)Nc1ncn[nH]1,"inconclusive: 0.184 µM [falling, full curve, poor fit]",–
COc1ccc(CCN=C(N)Nc2nc(C)cc(C)n2)cc1,"inconclusive: 17.8 µM [falling, partial curve]",–
COc1cccc(-n2c([S-])c(C(=O)Nc3ccc(S(=O)(=O)N4CCOCC4)cc3)[n+]3cc(C(N)=O)ccc23)c1,–,inactive: -1.09%
COc1ccc(C2CC(c3cccs3)=Nc3ccccc3S2)cc1 (centres undefined),"inconclusive: 29.1 µM [cytotoxic, single point]",–
COc1ccc(S(=O)(=O)CCC(=O)Nc2cccc(OC)c2)cc1,–,inconclusive: -12%
COc1ccc(/C=C(/NC(=O)c2ccccc2)C(=O)N/N=C/c2ccc3c(c2)OCO3)cc1OC,–,inactive: -13.5%
COC(=O)c1cc(NC(=O)CN(C)C2CCS(=O)(=O)C2)cc(C(=O)OC)c1 (centres undefined),–,inactive: -2.12%
COc1ccccc1C1(CC(=O)Nc2nccs2)CCOC(C(C)C)C1 (centres undefined),–,inconclusive: -0.6%
COc1ccc(C(=O)NC2=Nc3ccccc3N=C(C)C2c2ccccc2)cc1 (centres undefined),"inconclusive: 11.2 µM [falling, partial curve]",–
CCOC(=O)c1cc(-c2ccccc2)n(CC(=O)N(C)c2ccc(OC)cc2)c1C,–,inconclusive: -5.1%
CCOC(=O)c1ccc(S(=O)(=O)NCC(c2ccc(N(C)C)cc2)c2c[nH]c3ccccc23)cc1 (centres undefined),–,inconclusive: 7.56%

Compound,Potency,"activity change, negative = inhibition"
C=CCSc1nnc(-c2cc(Br)ccc2N)c(=O)[nH]1,"inconclusive: 2.06 µM [rising, single point]",–
Cc1ccc(OCc2cnc(Cl)s2)c(C)c1,–,inactive: 1.25%
Cc1ccnc2nc(C(=O)OCC(=O)NCCc3ccc(Cl)cc3)nn12,"inconclusive: 16.4 µM [falling, partial curve, poor fit]",–
O=C(O)c1cccc(NC(=S)NC(=O)c2ccc3ccccc3c2)c1,"inconclusive: 35.5 µM [rising, single point]",–
CC(C)C(C(=O)Nc1ncn[nH]1)N1C(=O)c2ccccc2C1=O (centres undefined),–,inconclusive: -0.722%
Clc1ccc(-c2cc(COc3ccccc3)no2)cc1Cl,–,inconclusive: 13.4%
CCOC(=O)c1ccccc1NC(=O)COc1ccccc1,–,inconclusive: -19.9%
COCCNCC(=O)NCC12CC3CC(CC(C3)C1)C2,"inconclusive: 20.6 µM [falling, single point]",–
Nn1c(CN2CCCCC2)nc2ccccc2c1=O,–,inactive: -3.4%
O=C(c1cccnc1)n1nc(NCc2ccccc2)nc1NCc1ccccc1,"inconclusive: 35.5 µM [falling, single point]",–
CC(=O)c1c(N2CCOCC2)[nH]c(-c2ccccc2)nc1=S,"inconclusive: 29.1 µM [falling, single point]",–
CCC1(CC)Cc2ccccc2-c2nc(NCCO)[nH]c(=O)c21,–,inactive: -0.154%
Nc1cc(Cl)nc(N/N=C/c2ccc([N+](=O)[O-])cc2)n1,–,inconclusive: 8.44%
CC(NC(=S)NCc1ccccc1)C12CC3CC(CC(C3)C1)C2 (centres undefined),–,inactive: 6.58%
CCOC(=O)CC(=O)CSc1nc(N)c(C#N)c(-c2ccc(F)cc2)c1C#N,–,inconclusive: 9.68%
O=C(NNc1cccc(Cl)n1)Nc1ccccc1Cl,"inconclusive: 31.6 µM [falling, single point]",–
COc1ccc(CCNC(=O)COc2ccc([N+](=O)[O-])cc2)cc1,–,inactive: 2.01%
COc1cccc(NC(=O)Nc2cc(C)ccc2F)c1,"inconclusive: 8.91 µM [falling, partial curve]",–
Cc1ccc(C(=O)N(Cc2nc(-c3ccc(C)cc3)no2)C(C)C)cc1,–,inconclusive: 1.14%
CCOC(=O)c1c(/N=C/C2C(=O)CCCC2=O)sc(C)c1C,–,inconclusive: -2.17%
COC(=O)C1CCN(C(=O)c2cc(-c3ccc(Cl)s3)nc3ccccc23)CC1,"inconclusive: 20.6 µM [falling, single point]",–
COc1ccc(S(=O)(=O)N2CCOCC2)cc1NC(=O)/C=C/c1ccccc1,–,inconclusive: -17.7%
On1c(-c2ccc(Cl)cc2)nc2ccccc21,"inconclusive: 22.4 µM [falling, partial curve]",–
CC(=O)Nc1cccc(NC(=O)CSc2ccc(C(F)(F)F)cc2[N+](=O)[O-])c1,–,inconclusive: -1.78%
CCOc1ccc(C2Sc3ccccc3NC3=C2C(=O)OC3)cc1 (centres undefined),"inconclusive: 11.2 µM [rising, partial curve, poor fit]",–
Cn1c(Sc2ccc(C(F)(F)F)cc2[N+](=O)[O-])nnc1-c1ccccc1,–,inconclusive: 0.16%
O=C(Cc1ccccc1)NCc1ccncc1,"inconclusive: 6.31 µM [rising, single point]",–

# Part of the list above in order of molecular weight, low to high.
Compound,Potency,"activity change, negative = inhibition"
Cc1cccc(NC(=O)C2COc3ccccc3O2)c1 (centres undefined),–,inconclusive: 2.18%
CCC1(CC)Cc2ccccc2-c2nc(NCCO)[nH]c(=O)c21,–,inactive: -0.154%
COc1ccc(S(=O)(=O)N2CCOCC2)cc1NC(=O)/C=C/c1ccccc1,–,inconclusive: -17.7%
COc1ccccc1-n1c(SCC(=O)Nc2ccc(F)cc2)nc2c(c1=O)SCC2,"inconclusive: 29.1 µM [falling, partial curve, poor fit]",–
CCOC(=O)c1ccc(S(=O)(=O)NCC(c2ccc(N(C)C)cc2)c2c[nH]c3ccccc23)cc1 (centres undefined),–,inconclusive: 7.56%

# Later entries.

Compound,Potency,"activity change, negative = inhibition"
CCOC(=O)c1c[nH]c2nc(C)ccc2c1=O,"inconclusive: 12.6 µM [rising, partial curve]",–
O=C(COc1ccc(F)cc1Cl)Nc1ccc(S(=O)(=O)Nc2nccs2)cc1,–,inconclusive: -6.64%
CCN1CCCC1CNC(=O)C(=O)Nc1ccccc1OC (centres undefined),–,inconclusive: 250%
O=C(NC1CCCCC1)N1CCC(c2nc3ccc(Cl)cc3[nH]2)CC1,"inconclusive: 5.01 µM [falling, partial curve, poor fit]",–
CC(C)/C=C(/C(=O)c1ccc(Cl)cc1Cl)n1cncn1,"inconclusive: 11.2 µM [falling, partial curve, poor fit]",–
CCn1c(=N)c(S(=O)(=O)c2ccc(C)cc2)cc2c(=O)n3ccccc3nc21,–,inconclusive: 0.391%
Oc1ccc(Br)cc1CNc1ccccn1,–,inconclusive: -24.5%
CC(C)(C)c1ccc(S(=O)(=O)N2CCN(C(=O)C3=COCCO3)CC2)cc1,–,inactive: -0.34%
COCCNC(=S)N/N=C(\C)c1ccc(C)c([N+](=O)[O-])c1,"inconclusive: 23.1 µM [falling, single point]",–
COc1ccc(-c2cc(C(=O)Nc3cccc(Cl)c3)no2)cc1,–,inconclusive: -2.52%
CCC(=O)N1CCc2cc(Br)cc(S(=O)(=O)NCC3CCCO3)c21 (centres undefined),–,inconclusive: 0.242%
Cc1ccc2c(c1)[C@H]1[C@H](CO2)[C@H](c2ccccc2)[C@]2(C)C(=O)N(Cc3ccc(Cl)cc3)CC(=O)N12,–,inconclusive: 7.67%
CCOC(=O)c1c(-c2ccc(Cl)cc2)c(C#N)c(=O)n(N)c1N,–,inconclusive: 0.947%
COc1ccccc1/C=N/NC(=O)c1csc(C)c1C,–,inconclusive: -7.23%
Cc1c(NC(=S)NC(=O)c2cc3ccccc3o2)cccc1C(=O)O,"inconclusive: 2.51 µM [falling, partial curve, poor fit]",–
CCOC(=O)C1=C(CSc2nc3c(cc2C#N)CCC3)OC(N)=C(C#N)C1c1ccccc1 (centres undefined),–,inconclusive: 4.58%
CCOc1ccc(N2C(=O)CSC2=S)cc1,"inconclusive: 28.2 µM [falling, single point]",–
CCOCC(=O)Nc1ccc(OCc2ccccc2)cc1,–,inconclusive: 0.685%
COC(=O)c1cc(NC(=O)c2ccc(Cn3cc(Cl)cn3)o2)cc(C(=O)OC)c1,–,inconclusive: 14.1%
CCOC(=O)c1cc(-c2ccc3c(c2)OCO3)nc2onc(C)c12,–,inconclusive: 10.9%
COc1cccc(/C=N/NC(=O)NC2CCCCC2)c1O,"inconclusive: 22.4 µM [falling, partial curve]",–
Cc1cc(C)n(Cc2nc3ccccc3n2C)n1,–,inconclusive: -2.24%
NC(=O)c1c(NC(=O)c2ccccc2)sc2c1CCC2,–,inactive: 2.48%
C=CCNC(=O)C1CCN(S(=O)(=O)c2ccc3ccccc3c2)CC1,–,inactive: -2.05%
CN(C(=O)COC(=O)c1cc(=O)[nH]c2ccccc12)c1ccccc1,–,inconclusive: 0.844%

# — PubChem BioAssay AID493014 (National Center for Advancing Translational Sciences (NCATS), 2011)
